Assay results reported in article PMC10335695.
No constants are given. Whether binding was seen depends on the method and setting. Binding seen in cells or lysates may run through a third protein. Some entries that bind do so weakly or less than the wild type.

By UniProt entry, the sequences of proteins in these tests, tags left out.
UniProt P17542: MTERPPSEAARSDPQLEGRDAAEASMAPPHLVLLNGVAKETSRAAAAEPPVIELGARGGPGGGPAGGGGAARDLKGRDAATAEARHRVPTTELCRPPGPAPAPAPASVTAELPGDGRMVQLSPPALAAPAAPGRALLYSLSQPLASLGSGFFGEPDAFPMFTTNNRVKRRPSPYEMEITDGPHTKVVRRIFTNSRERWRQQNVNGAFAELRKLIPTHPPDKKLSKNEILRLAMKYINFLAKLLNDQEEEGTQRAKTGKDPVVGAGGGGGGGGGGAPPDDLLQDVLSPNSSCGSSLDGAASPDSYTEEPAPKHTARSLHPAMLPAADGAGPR
UniProt Q99081: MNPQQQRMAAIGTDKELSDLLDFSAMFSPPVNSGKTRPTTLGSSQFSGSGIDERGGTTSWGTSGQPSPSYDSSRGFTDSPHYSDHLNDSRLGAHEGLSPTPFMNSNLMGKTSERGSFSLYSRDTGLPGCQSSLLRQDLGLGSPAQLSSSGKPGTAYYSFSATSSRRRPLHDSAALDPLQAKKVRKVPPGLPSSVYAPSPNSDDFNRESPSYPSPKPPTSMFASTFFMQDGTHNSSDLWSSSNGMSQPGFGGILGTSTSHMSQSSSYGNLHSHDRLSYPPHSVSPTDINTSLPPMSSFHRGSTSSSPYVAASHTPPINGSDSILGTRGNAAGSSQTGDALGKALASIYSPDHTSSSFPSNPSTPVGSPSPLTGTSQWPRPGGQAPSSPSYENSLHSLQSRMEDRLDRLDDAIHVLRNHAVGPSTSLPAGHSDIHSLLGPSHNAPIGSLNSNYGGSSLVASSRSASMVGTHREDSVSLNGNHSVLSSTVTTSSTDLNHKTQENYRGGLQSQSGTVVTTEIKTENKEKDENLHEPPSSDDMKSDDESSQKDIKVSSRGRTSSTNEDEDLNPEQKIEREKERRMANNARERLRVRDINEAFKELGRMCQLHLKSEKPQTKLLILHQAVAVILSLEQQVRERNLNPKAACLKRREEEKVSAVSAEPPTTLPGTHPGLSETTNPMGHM

Experiments:
[1] = target: FLAG-TAL1-long (human) (UniProt P17542); assay: co-IP; Jurkat cells expressing FLAG-TAL1-short or FLAG-TAL1-long; lysis in 0.5% NP40, 150 mM NaCl, 50 mM Tris pH 7.5, 2 mM MgCl2; anti-FLAG M2 magnetic beads 2 h at 4°C, 4 washes; blot for endogenous TCF3 and TCF12
[2] = target: GFP-TAL1-long (human) (UniProt P17542); assay: co-IP; Jurkat cells infected with GFP-TAL1-short or GFP-TAL1-long; GFP immunoprecipitated; interacting proteins detected by blot

binding [1]: binds
binding [2]: binds
Substance: TCF12 (from UniProt Q99081 1-682)
